Test results from the M2OR odorant receptor database.
The list shows a part of the results, in another mix than the full data. Calls are pooled over several reports, among them a noisy single-well screen. The list shows a part of the results.

Legend:
Conditions in all cases: stereoisomer not certain
OR51I1 (Homo sapiens) = biological target: T1, OR51I1 (Homo sapiens) (UniProt Q9H343)
T1 sequence (whole entry): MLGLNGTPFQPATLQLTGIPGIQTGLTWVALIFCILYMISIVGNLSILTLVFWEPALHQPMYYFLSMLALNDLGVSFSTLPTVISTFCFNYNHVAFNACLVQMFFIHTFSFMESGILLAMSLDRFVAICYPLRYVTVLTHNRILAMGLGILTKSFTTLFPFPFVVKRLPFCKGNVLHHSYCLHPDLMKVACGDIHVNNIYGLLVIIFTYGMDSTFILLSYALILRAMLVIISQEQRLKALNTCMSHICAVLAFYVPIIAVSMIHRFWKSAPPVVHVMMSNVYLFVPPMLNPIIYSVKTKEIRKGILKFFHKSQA
In short: (§1)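 Transient luciferase assays in mammalian cell lines were common, though methods varied by source. The values come from published papers and their supplementary material, with extra details from the original authors when needed. Responsive refers to a measured signal the original authors judged statistically different from baseline, and non-responsive (inactive) to the remainder.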

OR51I2 (Homo sapiens) = biological target: T2, OR51I2 (Homo sapiens) (UniProt Q9H344)
T2 sequence (whole entry): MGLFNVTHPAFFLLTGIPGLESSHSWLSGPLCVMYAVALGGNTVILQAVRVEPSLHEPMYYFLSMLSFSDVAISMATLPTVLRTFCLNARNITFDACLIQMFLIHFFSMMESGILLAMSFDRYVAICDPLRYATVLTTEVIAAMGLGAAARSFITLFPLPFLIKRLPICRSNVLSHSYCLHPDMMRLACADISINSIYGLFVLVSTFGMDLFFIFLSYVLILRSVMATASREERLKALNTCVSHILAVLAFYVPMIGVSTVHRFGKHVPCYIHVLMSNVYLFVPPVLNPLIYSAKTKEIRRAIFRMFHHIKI
In short: as §1

OR51L1 (Homo sapiens) = biological target: T3, OR51L1 (Homo sapiens) (UniProt Q8NGJ5)
T3 sequence (whole entry): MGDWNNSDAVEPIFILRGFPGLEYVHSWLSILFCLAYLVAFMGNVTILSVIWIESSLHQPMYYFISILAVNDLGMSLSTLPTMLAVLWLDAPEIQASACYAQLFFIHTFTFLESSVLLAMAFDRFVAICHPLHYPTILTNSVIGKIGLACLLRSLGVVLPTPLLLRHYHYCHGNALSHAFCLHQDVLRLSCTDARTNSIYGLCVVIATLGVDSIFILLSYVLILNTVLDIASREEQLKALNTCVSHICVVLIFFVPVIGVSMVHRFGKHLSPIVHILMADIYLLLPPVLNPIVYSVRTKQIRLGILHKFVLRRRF
In short: as §1

OR51S1 (Homo sapiens) = biological target: T4, OR51S1 (Homo sapiens) (UniProt Q8NGJ8)
T4 sequence (whole entry): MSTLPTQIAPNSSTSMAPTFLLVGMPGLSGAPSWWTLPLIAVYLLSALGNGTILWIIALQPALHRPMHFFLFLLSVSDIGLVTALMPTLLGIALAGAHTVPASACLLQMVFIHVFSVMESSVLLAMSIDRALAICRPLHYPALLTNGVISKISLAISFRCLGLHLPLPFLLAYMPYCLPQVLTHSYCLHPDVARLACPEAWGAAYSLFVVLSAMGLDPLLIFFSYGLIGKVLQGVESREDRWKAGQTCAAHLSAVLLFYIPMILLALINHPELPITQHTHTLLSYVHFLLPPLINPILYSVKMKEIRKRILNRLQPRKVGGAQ
In short: as §1

OR52A4P (Homo sapiens) = biological target: T5, OR52A4P (Homo sapiens) (UniProt A6NMU1)
T5 sequence (whole entry): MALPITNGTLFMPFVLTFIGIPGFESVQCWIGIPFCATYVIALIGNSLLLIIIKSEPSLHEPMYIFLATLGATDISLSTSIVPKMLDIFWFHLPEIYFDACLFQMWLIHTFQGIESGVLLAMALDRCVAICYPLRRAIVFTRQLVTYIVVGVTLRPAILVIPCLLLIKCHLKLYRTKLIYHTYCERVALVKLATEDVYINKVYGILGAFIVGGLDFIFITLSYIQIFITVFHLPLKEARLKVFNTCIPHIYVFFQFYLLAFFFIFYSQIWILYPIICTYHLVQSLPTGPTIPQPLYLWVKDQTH
In short: as §1

OR52A5 (Homo sapiens) = biological target: T6, OR52A5 (Homo sapiens) (UniProt Q9H2C5)
T6 sequence (whole entry): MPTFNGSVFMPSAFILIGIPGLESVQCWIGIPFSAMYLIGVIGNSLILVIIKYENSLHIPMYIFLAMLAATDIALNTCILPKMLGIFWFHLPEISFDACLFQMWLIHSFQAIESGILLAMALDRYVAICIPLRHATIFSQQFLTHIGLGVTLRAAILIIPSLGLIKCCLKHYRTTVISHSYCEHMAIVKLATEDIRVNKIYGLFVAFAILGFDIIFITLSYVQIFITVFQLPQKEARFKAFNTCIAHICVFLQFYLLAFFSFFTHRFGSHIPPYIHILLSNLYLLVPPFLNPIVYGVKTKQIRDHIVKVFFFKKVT
In short: as §1

OR52B4 (Homo sapiens) = biological target: T7, OR52B4 (Homo sapiens) (UniProt Q8NGK2)
T7 sequence (whole entry): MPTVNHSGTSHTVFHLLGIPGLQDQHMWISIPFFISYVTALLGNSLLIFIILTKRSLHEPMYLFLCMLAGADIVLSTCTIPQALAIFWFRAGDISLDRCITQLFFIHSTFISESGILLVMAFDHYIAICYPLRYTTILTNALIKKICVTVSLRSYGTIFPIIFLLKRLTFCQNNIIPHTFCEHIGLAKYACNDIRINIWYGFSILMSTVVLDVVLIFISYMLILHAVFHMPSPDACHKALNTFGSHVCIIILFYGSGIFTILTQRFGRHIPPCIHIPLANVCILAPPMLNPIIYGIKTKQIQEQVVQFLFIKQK
In short: as §1

OR52D1 (Homo sapiens) = biological target: T8, OR52D1 (Homo sapiens) (UniProt Q9H346)
T8 sequence (whole entry): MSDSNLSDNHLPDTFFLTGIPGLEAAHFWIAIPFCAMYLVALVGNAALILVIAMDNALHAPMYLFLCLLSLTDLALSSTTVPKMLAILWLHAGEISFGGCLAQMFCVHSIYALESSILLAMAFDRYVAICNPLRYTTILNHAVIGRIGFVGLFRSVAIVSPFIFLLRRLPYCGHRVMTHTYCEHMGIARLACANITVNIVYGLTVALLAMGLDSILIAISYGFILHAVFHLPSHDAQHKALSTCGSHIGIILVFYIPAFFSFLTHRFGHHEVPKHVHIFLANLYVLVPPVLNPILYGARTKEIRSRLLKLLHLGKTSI
In short: as §1

Measured: odorant receptor agonist call

CC(C)CC(=O)O
active: OR52D1 (Homo sapiens)
inactive: OR51I1 (Homo sapiens) | OR51I2 (Homo sapiens) | OR51L1 (Homo sapiens) | OR51S1 (Homo sapiens) | OR52A4P (Homo sapiens) | OR52A5 (Homo sapiens) | OR52B4 (Homo sapiens)

O=C1CCCCCCCCCCCC(=O)OCCO1
active: OR52A4P (Homo sapiens) | OR52A5 (Homo sapiens)
inactive: OR51I1 (Homo sapiens) | OR51I2 (Homo sapiens) | OR51L1 (Homo sapiens) | OR51S1 (Homo sapiens) | OR52B4 (Homo sapiens) | OR52D1 (Homo sapiens)

CC(C)(C)c1ccc(CCC=O)cc1
inactive: OR51I2 (Homo sapiens) | OR51L1 (Homo sapiens) | OR51S1 (Homo sapiens) | OR52A4P (Homo sapiens) | OR52A5 (Homo sapiens) | OR52B4 (Homo sapiens) | OR52D1 (Homo sapiens)
active: OR51I1 (Homo sapiens)

C=CCc1ccc(OC)c(OC)c1
inactive: OR51I1 (Homo sapiens) | OR51I2 (Homo sapiens) | OR51L1 (Homo sapiens) | OR51S1 (Homo sapiens) | OR52A4P (Homo sapiens) | OR52A5 (Homo sapiens) | OR52B4 (Homo sapiens) | OR52D1 (Homo sapiens)

O=CCc1ccccc1
active: OR51I1 (Homo sapiens) | OR51L1 (Homo sapiens) | OR51S1 (Homo sapiens) | OR52A4P (Homo sapiens) | OR52A5 (Homo sapiens)
inactive: OR51I2 (Homo sapiens) | OR52B4 (Homo sapiens) | OR52D1 (Homo sapiens)

CC(C)C=O
inactive: OR51I1 (Homo sapiens) | OR51I2 (Homo sapiens) | OR51L1 (Homo sapiens) | OR51S1 (Homo sapiens) | OR52A4P (Homo sapiens) | OR52A5 (Homo sapiens) | OR52B4 (Homo sapiens) | OR52D1 (Homo sapiens)

COC(=O)c1ccccc1O
inactive: OR51I1 (Homo sapiens) | OR51I2 (Homo sapiens) | OR51L1 (Homo sapiens) | OR51S1 (Homo sapiens) | OR52A4P (Homo sapiens) | OR52A5 (Homo sapiens) | OR52B4 (Homo sapiens) | OR52D1 (Homo sapiens)
